This test deals with Flag-tagged MAVS Y9F mutant (human) (UniProt Q7Z434). Nature of the test: co-IP; HEK293T cotransfected with Flag-MAVS WT or Y9F and a Myc-tagged partner (RIG-I 2Card, STING, MAVS WT or Y9F); after 48 h lysates (1% Nonidet P-40) immunoprecipitated with anti-Flag; immunoblot with anti-Myc. In general terms: Immunoblotting shows a protein as a band on a membrane.

Amino acid sequences for entries named in this document (tags omitted). A change or cut given only in a name is not applied to a line headed by its entry.
UniProt Q7Z434: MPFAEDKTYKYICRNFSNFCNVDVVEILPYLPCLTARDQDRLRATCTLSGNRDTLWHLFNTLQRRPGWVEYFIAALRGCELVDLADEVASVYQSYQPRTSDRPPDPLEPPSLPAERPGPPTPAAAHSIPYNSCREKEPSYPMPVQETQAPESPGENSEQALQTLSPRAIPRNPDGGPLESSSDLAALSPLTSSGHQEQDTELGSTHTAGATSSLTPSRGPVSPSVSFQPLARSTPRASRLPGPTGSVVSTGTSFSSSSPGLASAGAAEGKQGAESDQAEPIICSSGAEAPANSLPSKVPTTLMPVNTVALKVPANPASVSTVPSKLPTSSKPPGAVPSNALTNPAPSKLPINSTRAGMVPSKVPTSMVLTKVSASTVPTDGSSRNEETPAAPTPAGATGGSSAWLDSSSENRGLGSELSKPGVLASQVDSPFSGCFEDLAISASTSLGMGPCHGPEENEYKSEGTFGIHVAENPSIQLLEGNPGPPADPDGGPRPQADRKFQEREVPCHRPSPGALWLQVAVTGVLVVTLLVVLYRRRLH
UniProt Q86WV6: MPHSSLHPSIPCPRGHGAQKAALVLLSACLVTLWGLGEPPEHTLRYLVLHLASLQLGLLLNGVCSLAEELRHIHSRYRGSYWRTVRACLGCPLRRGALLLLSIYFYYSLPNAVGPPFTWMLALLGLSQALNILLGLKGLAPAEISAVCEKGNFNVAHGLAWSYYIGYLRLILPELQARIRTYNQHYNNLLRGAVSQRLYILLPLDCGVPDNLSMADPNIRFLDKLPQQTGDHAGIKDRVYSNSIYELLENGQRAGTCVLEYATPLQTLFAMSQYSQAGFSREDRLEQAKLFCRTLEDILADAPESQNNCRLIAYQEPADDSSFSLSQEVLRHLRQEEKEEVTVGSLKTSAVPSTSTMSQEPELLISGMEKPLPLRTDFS

This passage reports binding results from article PMC3406013.

No constants are given. Whether binding was seen depends on the method and setting. In cells and extracts the contact can be indirect. Some entries that bind do so weakly or less than the wild type.

Consider “Myc-tagged STING (stimulator of interferon genes) (from UniProt Q86WV6 1-379)”, for which the binding entry is given as “binds”.
